Consider one molecule from patent US20260042835A1.

Amino acid sequences for entries named in this document (tags omitted). Residues count along the entry.
UniProt Q8NHJ6, residues 22-448: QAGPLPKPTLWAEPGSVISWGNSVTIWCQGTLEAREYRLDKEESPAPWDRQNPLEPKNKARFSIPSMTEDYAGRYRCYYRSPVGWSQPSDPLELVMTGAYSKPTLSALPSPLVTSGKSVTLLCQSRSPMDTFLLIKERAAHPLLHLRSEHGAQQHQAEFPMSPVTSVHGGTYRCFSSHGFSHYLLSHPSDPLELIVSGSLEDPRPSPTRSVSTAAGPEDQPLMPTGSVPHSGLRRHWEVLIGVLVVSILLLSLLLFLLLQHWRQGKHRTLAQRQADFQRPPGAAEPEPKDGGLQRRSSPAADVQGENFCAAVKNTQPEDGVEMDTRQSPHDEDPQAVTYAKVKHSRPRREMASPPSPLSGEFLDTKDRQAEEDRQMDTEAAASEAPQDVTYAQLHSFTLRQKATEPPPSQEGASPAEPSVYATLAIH

The assay deals with human ILT3 (immunoglobulin-like transcript 3) on circulating myeloid cells in blood (human) (UniProt Q8NHJ6). Put plainly: receptor occupancy in blood samples of solid tumor trial participants, in vivo dosing Q3W.

No constants are given. Whether binding was seen depends on the method and setting. Some entries that bind do so weakly or less than the wild type.

B1: Humanized anti-ILT3 mAb (52B8 VH1 M64V/VL5 N34Q) IgG4 S228P/Kappa (antibody, V domains shown)
VH: EVQLVESGGGLVQPGGSLRLSCAASGFTFSNYGMSWVRQAPGKGLEWVATISGGGDYTNYPDSVRGRFTISRDNAKNSLYLQMNSLRAEDTAVYYCGRRLWFRSLYYAMDYWGQGTLVTVSS
VL: DIQLTQSPSSLSASVGDRVTITCRASEKVDSFGQSFMHWYQQKPGKAPKLLIYLTSNLDSGVPSRFSGSGSGTDFTLTISSLQPEDFATYYCQQNNEDPYTFGQGTKLEIKR
On to B1, for which the binding result is reported as “binds”.
